These are yes or no findings as the source states them, for the method shown. Binding seen in cells or lysates may run through a third protein. Binding can be weak; no strength is given.
Target: human FRK expressed in INS-1 cells (human) (UniProt P42685)
Test: proximity ligation; Duolink PLA in INS-1 cells expressing human C3 (stable or cotransfected WT or ΔATG1 plasmid) and transfected with human FRK plasmid; mouse anti-human C3/C3a and goat anti-FRK primary antibodies

By UniProt entry, the sequences of proteins in these tests, tags left out. Where a name states a change or a piece, a line headed by the entry shows the natural chain unless it says otherwise.
UniProt P42685: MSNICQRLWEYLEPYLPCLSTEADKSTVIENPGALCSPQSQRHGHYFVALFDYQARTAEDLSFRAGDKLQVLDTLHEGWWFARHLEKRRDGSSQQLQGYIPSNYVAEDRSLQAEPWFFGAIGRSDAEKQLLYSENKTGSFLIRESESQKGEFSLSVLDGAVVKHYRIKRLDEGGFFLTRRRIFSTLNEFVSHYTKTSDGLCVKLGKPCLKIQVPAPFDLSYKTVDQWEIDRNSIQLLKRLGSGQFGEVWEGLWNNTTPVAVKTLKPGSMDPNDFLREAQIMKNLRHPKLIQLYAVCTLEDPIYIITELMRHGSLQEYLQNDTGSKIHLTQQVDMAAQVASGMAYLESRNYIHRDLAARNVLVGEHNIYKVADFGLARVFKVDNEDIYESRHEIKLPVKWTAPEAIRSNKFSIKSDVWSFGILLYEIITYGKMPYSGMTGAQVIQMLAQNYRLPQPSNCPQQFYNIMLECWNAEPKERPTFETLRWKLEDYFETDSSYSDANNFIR
UniProt P01024: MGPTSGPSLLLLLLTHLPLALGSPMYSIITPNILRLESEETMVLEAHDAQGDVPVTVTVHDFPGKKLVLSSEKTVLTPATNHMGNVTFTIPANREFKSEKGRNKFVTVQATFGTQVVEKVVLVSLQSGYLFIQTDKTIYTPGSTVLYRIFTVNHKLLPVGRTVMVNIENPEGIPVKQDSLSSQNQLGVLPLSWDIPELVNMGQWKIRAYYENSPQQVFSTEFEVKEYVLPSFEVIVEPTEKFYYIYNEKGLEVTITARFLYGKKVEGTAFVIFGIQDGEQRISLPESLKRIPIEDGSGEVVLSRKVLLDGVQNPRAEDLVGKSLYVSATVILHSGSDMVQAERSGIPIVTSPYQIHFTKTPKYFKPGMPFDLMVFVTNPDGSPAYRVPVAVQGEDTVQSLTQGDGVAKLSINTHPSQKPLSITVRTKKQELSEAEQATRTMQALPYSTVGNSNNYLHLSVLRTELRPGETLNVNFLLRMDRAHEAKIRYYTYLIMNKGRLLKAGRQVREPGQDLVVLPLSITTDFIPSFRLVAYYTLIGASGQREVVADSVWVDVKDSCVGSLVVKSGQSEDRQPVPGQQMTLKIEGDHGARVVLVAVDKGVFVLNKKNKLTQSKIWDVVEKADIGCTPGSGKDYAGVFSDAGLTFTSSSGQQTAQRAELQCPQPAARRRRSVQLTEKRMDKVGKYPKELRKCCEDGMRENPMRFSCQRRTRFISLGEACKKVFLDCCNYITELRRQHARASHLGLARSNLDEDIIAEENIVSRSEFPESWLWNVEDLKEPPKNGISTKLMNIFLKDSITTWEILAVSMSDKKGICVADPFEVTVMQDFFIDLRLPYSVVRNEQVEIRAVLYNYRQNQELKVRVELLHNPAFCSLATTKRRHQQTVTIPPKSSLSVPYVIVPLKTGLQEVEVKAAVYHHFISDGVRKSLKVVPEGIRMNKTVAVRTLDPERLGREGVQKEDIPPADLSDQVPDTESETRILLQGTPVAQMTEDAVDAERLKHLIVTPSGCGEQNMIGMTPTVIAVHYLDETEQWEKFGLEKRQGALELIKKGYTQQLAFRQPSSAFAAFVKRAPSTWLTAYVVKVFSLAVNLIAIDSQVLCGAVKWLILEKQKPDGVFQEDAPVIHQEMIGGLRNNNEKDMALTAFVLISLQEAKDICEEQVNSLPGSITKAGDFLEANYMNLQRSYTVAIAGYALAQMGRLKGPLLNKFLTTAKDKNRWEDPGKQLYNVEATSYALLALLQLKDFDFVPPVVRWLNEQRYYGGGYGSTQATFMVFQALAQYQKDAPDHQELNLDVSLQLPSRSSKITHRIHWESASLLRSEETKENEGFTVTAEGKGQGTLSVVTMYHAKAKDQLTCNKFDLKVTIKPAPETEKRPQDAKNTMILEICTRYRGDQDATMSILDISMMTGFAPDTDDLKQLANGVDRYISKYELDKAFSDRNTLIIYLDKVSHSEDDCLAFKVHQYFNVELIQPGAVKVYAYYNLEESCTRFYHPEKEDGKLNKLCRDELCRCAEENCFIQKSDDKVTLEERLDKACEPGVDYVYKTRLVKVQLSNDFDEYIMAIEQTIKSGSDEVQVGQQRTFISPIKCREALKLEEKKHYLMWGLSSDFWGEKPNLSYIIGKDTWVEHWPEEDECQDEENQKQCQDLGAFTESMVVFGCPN

For “ΔATG1 human C3 (cytosolic C3) (from UniProt P01024)”, which binding is on record?
Its binding is “binds”.
